This note sets out measurements from the odorant receptor screen of Mainland et al. (2015).

“And” between values parts separate entries of the source, which are not always exact repeats. Identical values can stand only once. The list shows a part of the results. Single wells; the ratio to wells without odorant was worked out here, and repeats agree poorly.

One experiment relates to OR2Z1 clone 1296. The experiment is described as follows: odorant receptor activation (CRE luciferase / Renilla) (fold of no-odor wells); higher = more activation. The note with it: 100 µM.
With `COC(=O)c1ccccc1` [methyl benzoate], the odorant receptor activation was found to be 0.607.

On to `CCCCCCCOC(C)=O` [heptyl acetate], for which the odorant receptor activation was 0.866 and 0.825.

With `COc1ccccc1O` [guaiacol], the odorant receptor activation was 0.916 and 1.25.

As for `CC(=O)OCC=C(C)CCC=C(C)C` [geranyl acetate], the odorant receptor activation was 0.736 and 0.861.

Regarding `CC(=O)OC1CC2CCC1(C)C2(C)C` (centres undefined) [isobornyl acetate], the odorant receptor activation was 0.898 and 1.24.

For `CCCCCC(C)=O` [2-heptanone], the odorant receptor activation was 0.799.

For the compound `CCCCCOC(C)=O` [n-amyl acetate], the odorant receptor activation came out at 0.474.

In the case of `CC12C=CCC1C1CCC3CC(=O)CCC3(C)C1CC2` (centres undefined) [androstenone], the odorant receptor activation is 0.947.

`CCCCCCOC(=O)CCC` [hexyl butyrate]: the odorant receptor activation is 0.796 and 1.15.

Take `CCC1(O)C2(C)CCC(C2)C1(C)C` (centres undefined) [2-ethylfenchol]: the odorant receptor activation came to 0.731.

As to `CC1COCc2cc3c(cc21)C(C)(C)C(C)C3(C)C` (centres undefined) [galaxolide], the odorant receptor activation is 0.849 and 1.31.

As for `CCCCCCC=O` [heptaldehyde], the odorant receptor activation is 0.485 and 0.79 and 1.13.

On to `CC(C)CC(=O)O` [isovaleric acid], for which the odorant receptor activation worked out at 0.461.

For `CC12C=CCC1C1CCC3=CC(=O)CCC3(C)C1CC2` (centres undefined) [androstadienone], the odorant receptor activation is 0.875 and 1.03.

Compound `CC(C)(C)c1ccc(CCC=O)cc1` [bourgeonal] registered an odorant receptor activation of 0.877.

The compound `O=C1CCCCCCCCCCCCCCO1` [pentadecalactone] had an odorant receptor activation of 0.672.

Take `CC1=NC(C)SC1C` (centres undefined): the odorant receptor activation was determined as 2.13.

Turning to `CCCCCC(=O)O` [caproic acid], the odorant receptor activation came to 0.87.

Consider `CCCCCCCCCCC=O` [undecanal], for which the odorant receptor activation came to 0.943.

As to `O=C1CCCCC1` [Cyclohexanone], the odorant receptor activation turned out to be 0.384.

Turning to `C=CCc1ccc(O)c(OC)c1` [eugenol], the odorant receptor activation is 0.84 and 1.

In turn, `CCCCCCCC=CC=O` [2-decenal] gave an odorant receptor activation of 0.962.

Regarding `CC(C)C=O` [isobutyraldehyde], the odorant receptor activation was 1.03 and 0.787.

As for `c1cnccn1` [pyrazine], the odorant receptor activation worked out at 0.819.

The compound `CC(=O)c1ccccc1` [acetophenone] came in with an odorant receptor activation of 1.75.

Consider `CC(C)C(=O)O` [isobutyric acid], for which the odorant receptor activation is 1.1 and 0.943.

For a further experiment, the system named is OR3A1 clone 1288. The description is as above. The note with it: 100 µM.
In turn, `COC(=O)c1ccccc1` [methyl benzoate] had an odorant receptor activation of 1.33.

Consider `CCCCCCCOC(C)=O` [heptyl acetate], for which the odorant receptor activation was 1.37 and 1.27.

Consider `COc1ccccc1O` [guaiacol], for which the odorant receptor activation was 1.28 and 0.932.

`CC(=O)OCC=C(C)CCC=C(C)C` [geranyl acetate]: the odorant receptor activation was 1.92 and 1.32.

Take `CC(=O)OC1CC2CCC1(C)C2(C)C` (centres undefined) [isobornyl acetate]: the odorant receptor activation is 1.22 and 1.09.

Consider `CCCCCC(C)=O` [2-heptanone], for which the odorant receptor activation stood at 1.91.

The compound `CCCCCOC(C)=O` [n-amyl acetate] displayed an odorant receptor activation of 0.876.

Compound `CC12C=CCC1C1CCC3CC(=O)CCC3(C)C1CC2` (centres undefined) [androstenone] showed an odorant receptor activation of 1.21.

For the compound `CCCCCCOC(=O)CCC` [hexyl butyrate], the odorant receptor activation was 1.2 and 0.942.

For `CCC1(O)C2(C)CCC(C2)C1(C)C` (centres undefined) [2-ethylfenchol], the odorant receptor activation amounted to 0.733.

As to `C=C(C)C1CC=CCC1` (centres undefined) [r-limonene], the odorant receptor activation was 1.24 and 0.712.

As to `CC1COCc2cc3c(cc21)C(C)(C)C(C)C3(C)C` (centres undefined) [galaxolide], the odorant receptor activation is 1.45 and 2.83.

Regarding `CCCCCCC=O` [heptaldehyde], the odorant receptor activation is 1.03 and 1.15 and 0.833.

`CC(C)CC(=O)O` [isovaleric acid]: the odorant receptor activation is 0.866.

On to `CC12C=CCC1C1CCC3=CC(=O)CCC3(C)C1CC2` (centres undefined) [androstadienone], for which the odorant receptor activation was 1.39 and 0.864.

Compound `CC(C)(C)c1ccc(CCC=O)cc1` [bourgeonal] registered an odorant receptor activation of 0.924.

Compound `O=C1CCCCCCCCCCCCCCO1` [pentadecalactone] came in with an odorant receptor activation of 0.761.

`CC1=NC(C)SC1C` (centres undefined) showed an odorant receptor activation of 1.12.

The compound `CCCCCC(=O)O` [caproic acid] showed an odorant receptor activation of 1.02.

The compound `CCCCCCCCCCC=O` [undecanal] had an odorant receptor activation of 0.902.

The compound `O=C1CCCCC1` [Cyclohexanone] displayed an odorant receptor activation of 0.985.

Consider `C=CCc1ccc(O)c(OC)c1` [eugenol], for which the odorant receptor activation was 2.88 and 1.63.

As for `CCCCCCCC=CC=O` [2-decenal], the odorant receptor activation was determined as 1.22.

On to `CC(C)C=O` [isobutyraldehyde], for which the odorant receptor activation is 1.34 and 0.977.

The compound `c1cnccn1` [pyrazine] displayed an odorant receptor activation of 0.864.

`CC(=O)c1ccccc1` [acetophenone] gave an odorant receptor activation of 3.27.

As to `CC(C)C(=O)O` [isobutyric acid], the odorant receptor activation is 1.29 and 0.861.

The next experiment has as its system OR3A2 clone 1286. The description is as above. The note with it: 100 µM.
Take `COC(=O)c1ccccc1` [methyl benzoate]: the odorant receptor activation amounted to 1.43.

With `CCCCCCCOC(C)=O` [heptyl acetate], the odorant receptor activation was 1.46 and 1.06.

In the case of `COc1ccccc1O` [guaiacol], the odorant receptor activation was 1.21 and 1.16.

As to `CC(=O)OCC=C(C)CCC=C(C)C` [geranyl acetate], the odorant receptor activation was 1.34 and 1.06.

In the case of `CC(=O)OC1CC2CCC1(C)C2(C)C` (centres undefined) [isobornyl acetate], the odorant receptor activation was 1.56 and 1.14.

As for `CCCCCC(C)=O` [2-heptanone], the odorant receptor activation came out at 1.04.

In turn, `CCCCCOC(C)=O` [n-amyl acetate] had an odorant receptor activation of 1.15.

As to `CC12C=CCC1C1CCC3CC(=O)CCC3(C)C1CC2` (centres undefined) [androstenone], the odorant receptor activation was determined as 1.31.

For the compound `CCCCCCOC(=O)CCC` [hexyl butyrate], the odorant receptor activation is 1.11 and 1.27.

For the compound `CCC1(O)C2(C)CCC(C2)C1(C)C` (centres undefined) [2-ethylfenchol], the odorant receptor activation is 0.726.

In the case of `C=C(C)C1CC=CCC1` (centres undefined) [r-limonene], the odorant receptor activation is 0.892 and 0.906.

Regarding `CC1COCc2cc3c(cc21)C(C)(C)C(C)C3(C)C` (centres undefined) [galaxolide], the odorant receptor activation was 1.29 and 1.28.

As for `CCCCCCC=O` [heptaldehyde], the odorant receptor activation is 0.92 and 1.15 and 1.03.

Compound `CC(C)CC(=O)O` [isovaleric acid] had an odorant receptor activation of 0.824.

For `CC12C=CCC1C1CCC3=CC(=O)CCC3(C)C1CC2` (centres undefined) [androstadienone], the odorant receptor activation was 1.46 and 1.4.

`CC(C)(C)c1ccc(CCC=O)cc1` [bourgeonal] showed an odorant receptor activation of 0.732.

`O=C1CCCCCCCCCCCCCCO1` [pentadecalactone] gave an odorant receptor activation of 0.757.

Take `CC1=NC(C)SC1C` (centres undefined): the odorant receptor activation came to 1.09.

Compound `CCCCCC(=O)O` [caproic acid] gave an odorant receptor activation of 0.623.

On to `CCCCCCCCCCC=O` [undecanal], for which the odorant receptor activation turned out to be 0.881.

As for `O=C1CCCCC1` [Cyclohexanone], the odorant receptor activation was 1.04.

The compound `CCCCCCCC=CC=O` [2-decenal] came in with an odorant receptor activation of 1.01.

With `CC(C)C=O` [isobutyraldehyde], the odorant receptor activation is 1.49 and 1.55.

As for `c1cnccn1` [pyrazine], the odorant receptor activation was determined as 0.749.

Compound `CC(=O)c1ccccc1` [acetophenone] had an odorant receptor activation of 2.35.

Take `CC(C)C(=O)O` [isobutyric acid]: the odorant receptor activation is 1.25 and 1.3.
